Measurements reported in patent US20220268780A1, “METHODS OF PREDICTING ENDOMETRIAL RECEPTIVITY” (HUDSON INSTITUTE OF MEDICAL RESEARCH, priority 2019, published 2022).

B1: Disintegrin and metalloproteinase domain-containing protein 10 (protein, UniProt O14672 214-748, looked up)
Disintegrin and …: TTSAEKNTCQLYIQTDHLFFKYYGTREAVIAQISSHVKAIDTIYQTTDFSGIRNISFMVKRIRINTTADEKDPTNPFRFPNIGVEKFLELNSEQNHDDYCLAYVFTDRDFDDGVLGLAWVGAPSGSSGGICEKSKLYSDGKKKSLNTGIITVQNYGSHVPPKVSHITFAHEVGHNFGSPHDSGTECTPGESKNLGQKENGNYIMYARATSGDKLNNNKFSLCSIRNISQVLEKKRNNCFVESGQPICGNGMVEQGEECDCGYSDQCKDECCFDANQPEGRKCKLKPGKQCSPSQGPCCTAQCAFKSKSEKCRDDSDCAREGICNGFTALCPASDPKPNFTDCNRHTQVCINGQCAGSICEKYGLEECTCASSDGKDDKELCHVCCMKKMDPSTCASTGSVQWSRHFSGRTITLQPGSPCNDFRGYCDVFMRCRLVDADGPLARLKKAIFSPELYENIAEWIVAHWWAVLLMGIALIMLMAGFIKICSVHTPSSNPKLPPPKPLPGTLKRRRPPQPIQQPQRQRPRESYQMGHMRR
B2: Aminopeptidase N (protein, UniProt P15144 2-967, looked up)
Aminopeptidase N: AKGFYISKSLGILGILLGVAAVCTIIALSVVYSQEKNKNANSSPVASTTPSASATTNPASATTLDQSKAWNRYRLPNTLKPDSYRVTLRPYLTPNDRGLYVFKGSSTVRFTCKEATDVIIIHSKKLNYTLSQGHRVVLRGVGGSQPPDIDKTELVEPTEYLVVHLKGSLVKDSQYEMDSEFEGELADDLAGFYRSEYMEGNVRKVVATTQMQAADARKSFPCFDEPAMKAEFNITLIHPKDLTALSNMLPKGPSTPLPEDPNWNVTEFHTTPKMSTYLLAFIVSEFDYVEKQASNGVLIRIWARPSAIAAGHGDYALNVTGPILNFFAGHYDTPYPLPKSDQIGLPDFNAGAMENWGLVTYRENSLLFDPLSSSSSNKERVVTVIAHELAHQWFGNLVTIEWWNDLWLNEGFASYVEYLGADYAEPTWNLKDLMVLNDVYRVMAVDALASSHPLSTPASEINTPAQISELFDAISYSKGASVLRMLSSFLSEDVFKQGLASYLHTFAYQNTIYLNLWDHLQEAVNNRSIQLPTTVRDIMNRWTLQMGFPVITVDTSTGTLSQEHFLLDPDSNVTRPSEFNYVWIVPITSIRDGRQQQDYWLIDVRAQNDLFSTSGNEWVLLNLNVTGYYRVNYDEENWRKIQTQLQRDHSAIPVINRAQIINDAFNLASAHKVPVTLALNNTLFLIEERQYMPWEAALSSLSYFKLMFDRSEVYGPMKNYLKKQVTPLFIHFRNNTNNWREIPENLMDQYSEVNAISTACSNGVPECEEMVSGLFKQWMENPNNNPIHPNLRSTVYCNAIAQGGEEEWDFAWEQFRNATLVNEADKLRAALACSKELWILNRYLSYTLNPDLIRKQDATSTIISITNNVIGQGLVWDFVQSNWKKLFNDYGGGSFSFSNLIQAVTRRFSTEYELQQLEQFKKDNEETGFGSGTRALEQALEKTKANIKWVKENKEVVLQWFTENSK
B3: Calpain small subunit 1 (protein, UniProt P04632 1-268, looked up)
Calpain small subunit 1: MFLVNSFLKGGGGGGGGGGGLGGGLGNVLGGLISGAGGGGGGGGGGGGGGGGGGGGTAMRILGGVISAISEAAAQYNPEPPPPRTHYSNIEANESEEVRQFRRLFAQLAGDDMEVSATELMNILNKVVTRHPDLKTDGFGIDTCRSMVAVMDSDTTGKLGFEEFKYLWNNIKRWQAIYKQFDTDRSGTICSSELPGAFEAAGFHLNEHLYNMIIRRYSDESGNMDFDNFISCLVRLDAMFRAFKSLDKDGTGQIQVNIQEWLQLTMYS
B4: Moesin (protein, UniProt P26038 2-577, looked up)
Moesin: PKTISVRVTTMDAELEFAIQPNTTGKQLFDQVVKTIGLREVWFFGLQYQDTKGFSTWLKLNKKVTAQDVRKESPLLFKFRAKFYPEDVSEELIQDITQRLFFLQVKEGILNDDIYCPPETAVLLASYAVQSKYGDFNKEVHKSGYLAGDKLLPQRVLEQHKLNKDQWEERIQVWHEEHRGMLREDAVLEYLKIAQDLEMYGVNYFSIKNKKGSELWLGVDALGLNIYEQNDRLTPKIGFPWSEIRNISFNDKKFVIKPIDKKAPDFVFYAPRLRINKRILALCMGNHELYMRRRKPDTIEVQQMKAQAREEKHQKQMERAMLENEKKKREMAEKEKEKIEREKEELMERLKQIEEQTKKAQQELEEQTRRALELEQERKRAQSEAEKLAKERQEAEEAKEALLQASRDQKKTQEQLALEMAELTARISQLEMARQKKESEAVEWQQKAQMVQEDLEKTRAELKTAMSTPHVAEPAENEQDEQDENGAEASADLRADAMAKDRSEEERTTEAEKNERVQKHLKALTSELANARDESKKTANDMIHAENMRLGRDKYKTLRQIRQGNTKQRIDEFESM
B5: Ras-related protein Rab-5C (protein, UniProt P51148 1-216, looked up)
Ras-related protein Rab-5C: MAGRGGAARPNGPAAGNKICQFKLVLLGESAVGKSSLVLRFVKGQFHEYQESTIGAAFLTQTVCLDDTTVKFEIWDTAGQERYHSLAPMYYRGAQAAIVVYDITNTDTFARAKNWVKELQRQASPNIVIALAGNKADLASKRAVEFQEAQAYADDNSLLFMETSAKTAMNVNEIFMAIAKKLPKNEPQNATGAPGRNRGVDLQENNPASRSQCCSN
B6: Brain acid soluble protein 1 (protein, UniProt P80723 2-227, looked up)
Brain acid soluble protein 1: GGKLSKKKKGYNVNDEKAKEKDKKAEGAATEEEGTPKESEPQAAAEPAEAKEGKEKPDQDAEGKAEEKEGEKDAAAAKEEAPKAEPEKTEGAAEAKAEPPKAPEQEQAAPGPAAGGEAPKAAEAAAAPAESAAPAAGEEPSKEEGEPKKTEAPAAPAAQETKSDGAPASDSKPGSSEAAPSSKETPAATEAPSSTPKAQGPAASAEEPKPVEAPAANSDQTVTVKE
B7: Glutamyl aminopeptidase (protein, UniProt Q07075 1-957, looked up)
Glutamyl aminopeptidase: MNFAEREGSKRYCIQTKHVAILCAVVVGVGLIVGLAVGLTRSCDSSGDGGPGTAPAPSHLPSSTASPSGPPAQDQDICPASEDESGQWKNFRLPDFVNPVHYDLHVKPLLEEDTYTGTVSISINLSAPTRYLWLHLRETRITRLPELKRPSGDQVQVRRCFEYKKQEYVVVEAEEELTPSSGDGLYLLTMEFAGWLNGSLVGFYRTTYTENGQVKSIVATDHEPTDARKSFPCFDEPNKKATYTISITHPKEYGALSNMPVAKEESVDDKWTRTTFEKSVPMSTYLVCFAVHQFDSVKRISNSGKPLTIYVQPEQKHTAEYAANITKSVFDYFEEYFAMNYSLPKLDKIAIPDFGTGAMENWGLITYRETNLLYDPKESASSNQQRVATVVAHELVHQWFGNIVTMDWWEDLWLNEGFASFFEFLGVNHAETDWQMRDQMLLEDVLPVQEDDSLMSSHPIIVTVTTPDEITSVFDGISYSKGSSILRMLEDWIKPENFQKGCQMYLEKYQFKNAKTSDFWAALEEASRLPVKEVMDTWTRQMGYPVLNVNGVKNITQKRFLLDPRANPSQPPSDLGYTWNIPVKWTEDNITSSVLFNRSEKEGITLNSSNPSGNAFLKINPDHIGFYRVNYEVATWDSIATALSLNHKTFSSADRASLIDDAFALARAQLLDYKVALNLTKYLKREENFLPWQRVISAVTYIISMFEDDKELYPMIEEYFQGQVKPIADSLGWNDAGDHVTKLLRSSVLGFACKMGDREALNNASSLFEQWLNGTVSLPVNLRLLVYRYGMQNSGNEISWNYTLEQYQKTSLAQEKEKLLYGLASVKNVTLLSRYLDLLKDTNLIKTQDVFTVIRYISYNSYGKNMAWNWIQLNWDYLVNRYTLNNRNLGRIVTIAEPFNTELQLWQMESFFAKYPQAGAGEKPREQVLETVKNNIEWLKQHRNTIREWFFNLLESG
B8: Neprilysin (protein, UniProt P08473 2-750, looked up)
Neprilysin: GKSESQMDITDINTPKPKKKQRWTPLEISLSVLVLLLTIIAVTMIALYATYDDGICKSSDCIKSAARLIQNMDATTEPCTDFFKYACGGWLKRNVIPETSSRYGNFDILRDELEVVLKDVLQEPKTEDIVAVQKAKALYRSCINESAIDSRGGEPLLKLLPDIYGWPVATENWEQKYGASWTAEKAIAQLNSKYGKKVLINLFVGTDDKNSVNHVIHIDQPRLGLPSRDYYECTGIYKEACTAYVDFMISVARLIRQEERLPIDENQLALEMNKVMELEKEIANATAKPEDRNDPMLLYNKMTLAQIQNNFSLEINGKPFSWLNFTNEIMSTVNISITNEEDVVVYAPEYLTKLKPILTKYSARDLQNLMSWRFIMDLVSSLSRTYKESRNAFRKALYGTTSETATWRRCANYVNGNMENAVGRLYVEAAFAGESKHVVEDLIAQIREVFIQTLDDLTWMDAETKKRAEEKALAIKERIGYPDDIVSNDNKLNNEYLELNYKEDEYFENIIQNLKFSQSKQLKKLREKVDKDEWISGAAVVNAFYSSGRNQIVFPAGILQPPFFSAQQSNSLNYGGIGMVIGHEITHGFDDNGRNFNKDGDLVDWWTQQSASNFKEQSQCMVYQYGNFSWDLAGGQHLNGINTLGENIADNGGLGQAYRAYQNYIKKNGEEKLLPGLDLNHKQLFFLNFAQVWCGTYRPEYAVNSIKTDVHSPGNFRIIGTLQNSAEFSEAFHCRKNSYMNPEKKCRVW
B9: Calreticulin (protein, UniProt P27797 18-417, looked up)
Calreticulin: EPAVYFKEQFLDGDGWTSRWIESKHKSDFGKFVLSSGKFYGDEEKDKGLQTSQDARFYALSASFEPFSNKGQTLVVQFTVKHEQNIDCGGGYVKLFPNSLDQTDMHGDSEYNIMFGPDICGPGTKKVHVIFNYKGKNVLINKDIRCKDDEFTHLYTLIVRPDNTYEVKIDNSQVESGSLEDDWDFLPPKKIKDPDASKPEDWDERAKIDDPTDSKPEDWDKPEHIPDPDAKKPEDWDEEMDGEWEPPVIQNPEYKGEWKPRQIDNPDYKGTWIHPEIDNPEYSPDPSIYAYDNFGVLGLDLWQVKSGTIFDNFLITNDEAYAEEFGNETWGVTKAAEKQMKDKQDEEQRLKEEEEDKKRKEEEEAEDKEDDEDKDEDEEDEEDKEEDEEEDVPGQAKDEL

Test system: human endometrial epithelial cells (HEECs)
Experiment: LC-MS/MS analysis of plasma membrane-enriched proteins of HEECs
Settings: sample 1, proliferative phase

| Molecule | Total unique peptides, Samples 1 |
| --- | --- |
| B1 | 7 |
| B2 | 8 |
| B3 | 2 |
| B4 | 11 |
| B5 | 2 |
| B6 | 3 |
| B7 | 4 |
| B8 | 3 |
| B9 | 5 |

Same assay, conditions: sample 2, proliferative phase

| Molecule | Total unique peptides, Samples 2 |
| --- | --- |
| B1 | 4 |
| B2 | 3 |
| B3 | 2 |
| B4 | 9 |
| B5 | 1 |
| B6 | 3 |
| B7 | 1 |
| B8 | 4 |
| B9 | 5 |

Same assay, conditions: sample 3, proliferative phase

| Molecule | Total unique peptides, Samples 3 |
| --- | --- |
| B1 | 2 |
| B2 | 2 |
| B3 | 1 |
| B4 | 4 |
| B5 | 1 |
| B6 | 6 |
| B7 | 1 |
| B8 | 1 |
| B9 | 4 |
